Values from PubChem BioAssay AID504808 (Drosophila RNAi Screening Center, 2011)
Aim: 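Fly genes required to hold E2F transcription in check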 (primary screen). System: Drosophila S2 cells. Knock-down reagent: long dsRNA against Drosophila genes. Detection: 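Dual luciferase plate measurements; E2F-specific signal taken as firefly over Renilla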. Reading the numbers: E2F firefly: higher = more E2F reporter activity; Renilla normaliser: higher = more normaliser reporter signal. Hit rule: 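a knock-down counted as active when the firefly/Renilla E2F signal rose above 50%, a threshold chosen arbitrarily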.
In all, the deposit lists about 21,000 reagents; below is a random part of those with a known target gene and a result. Over the whole deposit, 18 (0.084%) were called active. 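Raw counts without plate normalisation, one of two replicates; the ratio scores behind the calls were not deposited.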 A number with no mark means an inactive call. The numbers tell different reagents against one gene apart. A plus sign joins genes that one reagent is predicted to hit. The record does not give: the amount of reagent, the time to read-out.

Gene	reagent	E2F firefly, rep 1	Renilla normaliser, rep 1
CG4325	1	59199	4295
numb	1	91077	4261
CG32266	1	1.22e5	4267
lds	1	1.31e5	6722
CG13937	1	55169	3572
CG31098	1	1.13e5	5902
CG10102 (retired record)	1	91347	4151
E23	1	1.20e5	4213
E23	2	1.32e5	4985
Faa	1	70236	3331
Hmgcl	1	1.35e5	5068
ttv	1	2696	203
CG33252	1	88820	2422
CG8369	1	1.30e5	7317
PVRAP	1	91387	3559
PVRAP	2	82363	3270
CG2875	1	1809	868
COX7AL	1	1.29e5	6585
Hsc70-5	1	2496	217
Spt5	1	2.05e5	5605
CadN2 + CG42830	1	96470	4469
CadN2 + CG42830	2	97083	4048
CadN2 + CG42830	3	1.04e5	3945
PNPase	1	1947	800
CG42238	1	83920	3287
CG42306 + Gint3	1	75639	3302
CG5550	1	1.55e5	5461
CG42518 + MED9	1	66998	3106
CG13748	1	1.35e5	4331
PLCXD	1	1.00e5	4313
mtsh	1	1.47e5	5137
CG34429	1	1.39e5	6700
asRNA:CR42743 + CG34162	1	1.37e5	6966
Tre1	1	90106	6283
reb	1	93192	3870
cype	1	1.45e5	5042
CG14329	1	96494	5162
c(3)G	1	77702	3394
CG1889 + CG43386	1	1.48e5	6144
sisA	1	1.18e5	5608
vn	1	81355	3812
CG10803	1	1832	884
CG17999	1	81030	3887
P5cr	1	1.43e5	7215
CG44838	1	59290	3098
CG44838	2	75030	4180
CG30345	1	1.40e5	5174
Mtr3	1	1.08e5	7111
CG2187	1	55644	3377
CR41501	1	1.87e5	7579
CG17801	1	1.27e5	6097
unc-104	1	1.52e5	5232
wrd	1	60670	4487
wrd	2	1.52e5	7866
CG7191	1	1.66e5	5062
CG13405	1	1.03e5	4235
Sfmbt	1	99031 (active)	199
Su(var)3-3	1	83714	3944
CG30203	1	87103	3941
Sdc	1	97074	4484
CG10086	1	1.37e5	6130
Secp43	1	1.38e5	4586
eIF1A	1	64553	5101
Cyp4s3	1	1.50e5	6202
CG10337	1	97139	3868
l(2)37Cb	1	79374	3246
Cbs	1	1.44e5	5115
CG6527	1	1.05e5	5508
CG17234	1	1.60e5	5254
Jhbp2	1	1.14e5	5968
park + Targ3	1	82146	3482
MsrA	1	1.58e5	7414
Pi3K59F	1	85519	3717
CG5756	1	1.44e5	5191
Gr57a	1	97408	4864
CG13088	1	1.40e5	5332
Dyrk2	1	78934	3708
CG42697	1	1.70e5	7436
CG14630	1	51620	3756
CG14630	2	49532	3470
sm	1	1.81e5	6369
sm	2	66108	3056
CAH3	1	1.08e5	5783
Sara	1	1.06e5	4513
